{"source": "PubChem BioAssay AID1671195 (Yale University, 2021)", "assay": "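Genes whose knockdown alters LDL uptake in liver cancer cells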 (primary screen)", "cells": "human Huh7 hepatoma cells", "knock-down reagent": "siRNA pool against human genes, 18 nM", "timing": "about 2 to 2.5 days of knockdown, then 8 h LDL uptake", "challenge": "DiI-labelled LDL at 30 µg/ml for 8 h, in lipoprotein-deficient serum medium", "measured": "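Fluorescent LDL signal imaged in cells, scaled to the plate median, robust z-score for each replicate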", "reading the numbers": "robust z-score: higher = more LDL uptake after knockdown", "active means": "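a gene counts as active if at least two replicate z-scores exceed ±2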", "note": "The whole screen tested about 22,000 reagents; shown is a part drawn at random. Of all reagents, about 1,510 (6.9%) are marked active. 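Active includes knockdowns raising or lowering LDL uptake; positive z-scores mean more uptake, negative mean less.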 Entries without a mark were called inactive."}
{"gene":"SLC28A3","PubChem SID":"SID442899584","robust z-score, replicate 1":-0.651,"robust z-score, replicate 2":-0.941,"robust z-score, replicate 3":-0.33}
{"gene":"SLC39A12","PubChem SID":"SID442894505","robust z-score, replicate 1":-0.0785,"robust z-score, replicate 2":-0.296,"robust z-score, replicate 3":0.162}
{"gene":"ARFGEF1 (ARF guanine nucleotide exchange factor 1)","PubChem SID":"SID442900013","robust z-score, replicate 1":-0.53,"robust z-score, replicate 2":-0.365,"robust z-score, replicate 3":-1.21}
{"gene":"LOC401072 (retired record)","PubChem SID":"SID442900314","robust z-score, replicate 1":-0.481,"robust z-score, replicate 2":-0.517,"robust z-score, replicate 3":-1.24}
{"gene":"TRIM33 (tripartite motif containing 33)","PubChem SID":"SID442885694","robust z-score, replicate 1":1.97,"robust z-score, replicate 2":0.857,"robust z-score, replicate 3":1.38}
{"gene":"KEAP1 (kelch like ECH associated protein 1)","PubChem SID":"SID442884909","robust z-score, replicate 1":1.94,"robust z-score, replicate 2":1.94,"robust z-score, replicate 3":1.49}
{"gene":"LOC401032 (retired record)","PubChem SID":"SID442902291","robust z-score, replicate 1":-0.772,"robust z-score, replicate 2":-1.11,"robust z-score, replicate 3":-1.26}
{"gene":"SVOP (SV2 related protein)","PubChem SID":"SID442897320","robust z-score, replicate 1":-0.478,"robust z-score, replicate 2":-0.694,"robust z-score, replicate 3":0.0553}
{"gene":"NR1I2 (nuclear receptor subfamily 1 group I member 2)","PubChem SID":"SID442903103","robust z-score, replicate 1":-1.36,"robust z-score, replicate 2":-0.824,"robust z-score, replicate 3":-1.47}
{"gene":"ATP2B4 (ATPase plasma membrane Ca2+ transporting 4)","PubChem SID":"SID442897897","robust z-score, replicate 1":-0.372,"robust z-score, replicate 2":-0.101,"robust z-score, replicate 3":-0.837}
{"gene":"CKLF (chemokine like factor)","PubChem SID":"SID442885046","robust z-score, replicate 1":1.15,"robust z-score, replicate 2":2.16,"robust z-score, replicate 3":1.81}
{"gene":"DRC5 (dynein regulatory complex subunit 5)","PubChem SID":"SID442899198","robust z-score, replicate 1":-0.0412,"robust z-score, replicate 2":-0.985,"robust z-score, replicate 3":-0.744}
{"gene":"ADAMTSL1 (ADAMTS like 1)","PubChem SID":"SID442884347","robust z-score, replicate 1":"-1.94 (active)","robust z-score, replicate 2":-2.08,"robust z-score, replicate 3":-1.93}
{"gene":"ADAMTSL1 (ADAMTS like 1)","PubChem SID":"SID442896397","robust z-score, replicate 1":-0.295,"robust z-score, replicate 2":-0.274,"robust z-score, replicate 3":-0.234}
{"gene":"CA6 (carbonic anhydrase 6)","PubChem SID":"SID442885628","robust z-score, replicate 1":1.13,"robust z-score, replicate 2":1.77,"robust z-score, replicate 3":1.4}
{"gene":"MMS19 (MMS19 cytosolic iron-sulfur assembly component)","PubChem SID":"SID442901845","robust z-score, replicate 1":-0.945,"robust z-score, replicate 2":-0.989,"robust z-score, replicate 3":-0.98}
{"gene":"TENT5A (terminal nucleotidyltransferase 5A)","PubChem SID":"SID442903294","robust z-score, replicate 1":-1.65,"robust z-score, replicate 2":-0.288,"robust z-score, replicate 3":-1.86}
{"gene":"DYRK1B","PubChem SID":"SID442904661","robust z-score, replicate 1":-1.72,"robust z-score, replicate 2":-1.63,"robust z-score, replicate 3":-2.01}
{"gene":"KCNJ8 (potassium inwardly rectifying channel subfamily J member 8)","PubChem SID":"SID442893331","robust z-score, replicate 1":-0.0264,"robust z-score, replicate 2":-0.313,"robust z-score, replicate 3":0.527}
{"gene":"WASHC4 (WASH complex subunit 4)","PubChem SID":"SID442895368","robust z-score, replicate 1":-0.365,"robust z-score, replicate 2":0.811,"robust z-score, replicate 3":-0.934}
{"gene":"NRSN2 (neurensin 2)","PubChem SID":"SID442893804","robust z-score, replicate 1":0.386,"robust z-score, replicate 2":-0.235,"robust z-score, replicate 3":-0.126}
{"gene":"PSORS1C1 (psoriasis susceptibility 1 candidate 1)","PubChem SID":"SID442885947","robust z-score, replicate 1":1.16,"robust z-score, replicate 2":0.983,"robust z-score, replicate 3":1.8}
{"gene":"DHFR2 (dihydrofolate reductase 2)","PubChem SID":"SID442901674","robust z-score, replicate 1":-0.929,"robust z-score, replicate 2":-1.15,"robust z-score, replicate 3":-0.737}
{"gene":"PBX1 (PBX homeobox 1)","PubChem SID":"SID442885488","robust z-score, replicate 1":1.34,"robust z-score, replicate 2":1.64,"robust z-score, replicate 3":1.5}

Sorted by “robust z-score, replicate 3” (ascending): some entries from above.
{"gene":"DHFR2 (dihydrofolate reductase 2)","PubChem SID":"SID442901674","robust z-score, replicate 1":-0.929,"robust z-score, replicate 2":-1.15,"robust z-score, replicate 3":-0.737}
{"gene":"NRSN2 (neurensin 2)","PubChem SID":"SID442893804","robust z-score, replicate 1":0.386,"robust z-score, replicate 2":-0.235,"robust z-score, replicate 3":-0.126}
{"gene":"PSORS1C1 (psoriasis susceptibility 1 candidate 1)","PubChem SID":"SID442885947","robust z-score, replicate 1":1.16,"robust z-score, replicate 2":0.983,"robust z-score, replicate 3":1.8}
